Over roughly 1,900 compounds, “excess over highest single agent (ExcessHSA) synergy score, 6x6 matrix” has its median near -83; the lowest 2% begin near -370. This is one part of the list.

The experiment has as its system NCI-H446. Briefly: excess over highest single agent (ExcessHSA) synergy score, 6x6 matrix; higher = less synergy (more negative = stronger synergy). The note with it: 72 h; CellTiter-Glo viability. For orientation: In ATP-based viability assays light output follows the ATP content of the culture.
In the case of `O=C(/C=C/c1cccc(S(=O)(=O)Nc2ccccc2)c1)NO` + Cc1sc2c(c1C)C(c1ccc(Cl)cc1)=N[C@@H](CC(=O)OC(C)(C)C)c1nnc(C)n1-2 [NCGC00250412-19], the “excess over highest single agent” value is -269.
On to `NC[C@H]1O[C@H](O[C@H]2[C@H](O)[C@@H](O[C@H]3O[C@H](CO)[C@@H](O)[C@H](N)[C@H]3O)[C@H](N)C[C@@H]2N)[C@H](N)C[C@@H]1O` + Cc1sc2c(c1C)C(c1ccc(Cl)cc1)=N[C@@H](CC(=O)OC(C)(C)C)c1nnc(C)n1-2 [NCGC00250412-19], for which the “excess over highest single agent” value is -18.3.
Turning to `CNC(=O)c1c(F)cccc1Nc1nc(Nc2cc3c(cc2OC)CCN3C(=O)CN(C)C)nc2[nH]ccc12` + Cc1sc2c(c1C)C(c1ccc(Cl)cc1)=N[C@@H](CC(=O)OC(C)(C)C)c1nnc(C)n1-2 [NCGC00250412-19], the “excess over highest single agent” value was -63.2.
The value for `CCn1c(=O)c2c(nc(/C=C/c3ccc(OC)c(OC)c3)n2C)n(CC)c1=O` + Cc1sc2c(c1C)C(c1ccc(Cl)cc1)=N[C@@H](CC(=O)OC(C)(C)C)c1nnc(C)n1-2 [NCGC00250412-19] was 11.3; that for `C[C@@H]1C/C=C/C=C/C=C/C=C/[C@H](O[C@@H]2O[C@H](C)[C@@H](O)[C@H](N)[C@@H]2O)C[C@@H]2O[C@](O)(C[C@@H](O)C[C@H]3O[C@@H]3/C=C/C(=O)O1)C[C@H](O)[C@H]2C(=O)O` + Cc1sc2c(c1C)C(c1ccc(Cl)cc1)=N[C@@H](CC(=O)OC(C)(C)C)c1nnc(C)n1-2 [NCGC00250412-19] was 52.8; that for `CN1CCN2c3ncccc3Cc3ccccc3C2C1` (configuration not stated) + Cc1sc2c(c1C)C(c1ccc(Cl)cc1)=N[C@@H](CC(=O)OC(C)(C)C)c1nnc(C)n1-2 [NCGC00250412-19] was -12.2.
Consider `CC(C)N(CC[C@H](c1ccccc1)c1cc(CO)ccc1O)C(C)C` + Cc1sc2c(c1C)C(c1ccc(Cl)cc1)=N[C@@H](CC(=O)OC(C)(C)C)c1nnc(C)n1-2 [NCGC00250412-19], for which the “excess over highest single agent” value was -7.25.
With `CC[C@H](NC(=O)[C@H](C)NC)C(=O)N1C[C@@H](O)C[C@H]1Cc1c(-c2[nH]c3cc(F)ccc3c2C[C@@H]2C[C@H](O)CN2C(=O)[C@H](CC)NC(=O)[C@H](C)NC)[nH]c2cc(F)ccc12` + Cc1sc2c(c1C)C(c1ccc(Cl)cc1)=N[C@@H](CC(=O)OC(C)(C)C)c1nnc(C)n1-2 [NCGC00250412-19], the “excess over highest single agent” value is -61.9.
Take `COc1ccc(N(C(=O)Oc2c(C)cccc2C)c2ccnc(Nc3ccc(N4CCN(C)CC4)cc3)n2)c(OC)c1` + Cc1sc2c(c1C)C(c1ccc(Cl)cc1)=N[C@@H](CC(=O)OC(C)(C)C)c1nnc(C)n1-2 [NCGC00250412-19]: the “excess over highest single agent” value was -226.
Consider `CC(C)[C@H](N)C(=O)OCCOCn1cnc2c(=O)nc(N)[nH]c21` + Cc1sc2c(c1C)C(c1ccc(Cl)cc1)=N[C@@H](CC(=O)OC(C)(C)C)c1nnc(C)n1-2 [NCGC00250412-19], for which the “excess over highest single agent” value was found to be 43.6.
The value for `COC1=C[C@@H]2[C@@H]3Cc4ccc(OC)c(O)c4[C@]2(CCN3C)CC1=O` + Cc1sc2c(c1C)C(c1ccc(Cl)cc1)=N[C@@H](CC(=O)OC(C)(C)C)c1nnc(C)n1-2 [NCGC00250412-19] was -139.
For `C/C(=C\c1csc(C)n1)[C@@H]1C[C@@H]2O[C@@H]2CCC[C@H](C)[C@H](O)[C@@H](C)C(=O)C(C)(C)[C@@H](O)CC(=O)O1` + Cc1sc2c(c1C)C(c1ccc(Cl)cc1)=N[C@@H](CC(=O)OC(C)(C)C)c1nnc(C)n1-2 [NCGC00250412-19], the “excess over highest single agent” value was -151.
The value for `CC1(C)O[C@@H]2C[C@H]3[C@@H]4C[C@H](F)C5=CC(=O)C=C[C@]5(C)[C@@]4(F)[C@@H](O)C[C@]3(C)[C@]2(C(=O)CO)O1` + Cc1sc2c(c1C)C(c1ccc(Cl)cc1)=N[C@@H](CC(=O)OC(C)(C)C)c1nnc(C)n1-2 [NCGC00250412-19] was -20.1.
On to `COC(=O)C1=CO[C@@H](O)[C@@H]2C(CO)=CC[C@H]12` + Cc1sc2c(c1C)C(c1ccc(Cl)cc1)=N[C@@H](CC(=O)OC(C)(C)C)c1nnc(C)n1-2 [NCGC00250412-19], for which the “excess over highest single agent” value is -24.6.
The value for `Cc1nc(C(=O)NCC(=O)O)c(O)c2ccc(Oc3ccccc3)cc12` + Cc1sc2c(c1C)C(c1ccc(Cl)cc1)=N[C@@H](CC(=O)OC(C)(C)C)c1nnc(C)n1-2 [NCGC00250412-19] was -115; that for `COc1cccc2c1C(=O)c1c(O)c3c(c(O)c1C2=O)C[C@@](O)(C(=O)CO)C[C@@H]3O[C@H]1C[C@H](N)[C@H](O[C@@H]2CCCCO2)[C@H](C)O1` + Cc1sc2c(c1C)C(c1ccc(Cl)cc1)=N[C@@H](CC(=O)OC(C)(C)C)c1nnc(C)n1-2 [NCGC00250412-19] was -345; that for `CCCCCCNC(=O)n1cc(F)c(=O)[nH]c1=O` + Cc1sc2c(c1C)C(c1ccc(Cl)cc1)=N[C@@H](CC(=O)OC(C)(C)C)c1nnc(C)n1-2 [NCGC00250412-19] was 124.
The value for `Nc1nc(=O)n([C@@H]2CS[C@H](CO)O2)cc1F` + Cc1sc2c(c1C)C(c1ccc(Cl)cc1)=N[C@@H](CC(=O)OC(C)(C)C)c1nnc(C)n1-2 [NCGC00250412-19] was -92.3; that for `CC[C@@H]1C(=O)N(C)c2cnc(Nc3ccc(C(=O)N[C@H]4CC[C@H](N5CCN(CC6CC6)CC5)CC4)cc3OC)nc2N1C(C)C` + Cc1sc2c(c1C)C(c1ccc(Cl)cc1)=N[C@@H](CC(=O)OC(C)(C)C)c1nnc(C)n1-2 [NCGC00250412-19] was -192.
In the case of `CCc1cccc(CC)c1NC(=O)N1Cc2[nH]nc(NC(=O)c3ccc(N4CCN(C)CC4)cc3)c2C1` + Cc1sc2c(c1C)C(c1ccc(Cl)cc1)=N[C@@H](CC(=O)OC(C)(C)C)c1nnc(C)n1-2 [NCGC00250412-19], the “excess over highest single agent” value is -268.
Turning to `CC#C[C@]1(O)CC[C@H]2[C@@H]3CCC4=CC(=O)CCC4=C3[C@@H](c3ccc(N(C)C)cc3)C[C@@]21C` + Cc1sc2c(c1C)C(c1ccc(Cl)cc1)=N[C@@H](CC(=O)OC(C)(C)C)c1nnc(C)n1-2 [NCGC00250412-19], the “excess over highest single agent” value was -18.1.
`CN(C)CCc1ccc(O)cc1` + Cc1sc2c(c1C)C(c1ccc(Cl)cc1)=N[C@@H](CC(=O)OC(C)(C)C)c1nnc(C)n1-2 [NCGC00250412-19]: the “excess over highest single agent” value was -69.9.
Take `CCOC(=O)C1=C(N)Oc2ccc(Br)cc2C1C(C#N)C(=O)OCC` (configuration not stated) + Cc1sc2c(c1C)C(c1ccc(Cl)cc1)=N[C@@H](CC(=O)OC(C)(C)C)c1nnc(C)n1-2 [NCGC00250412-19]: the “excess over highest single agent” value was -121.
On to `Cc1ccc(S(=O)(=O)Nc2nc3ccccc3nc2Nc2ccc3nsnc3c2)cc1` + Cc1sc2c(c1C)C(c1ccc(Cl)cc1)=N[C@@H](CC(=O)OC(C)(C)C)c1nnc(C)n1-2 [NCGC00250412-19], for which the “excess over highest single agent” value is -88.8.
In the case of `C/C=C(/C)C(=O)O[C@H]1C(C)=C[C@]23C(=O)[C@@H](C=C(CO)[C@@H](O)[C@]12O)[C@H]1[C@@H](C[C@H]3C)C1(C)C` + Cc1sc2c(c1C)C(c1ccc(Cl)cc1)=N[C@@H](CC(=O)OC(C)(C)C)c1nnc(C)n1-2 [NCGC00250412-19] it was 104.
In the case of `CC(C)C(=O)Nc1ncc(-c2cc(C(F)F)nn2-c2c(Cl)cccc2Cl)s1` + Cc1sc2c(c1C)C(c1ccc(Cl)cc1)=N[C@@H](CC(=O)OC(C)(C)C)c1nnc(C)n1-2 [NCGC00250412-19] it was -105; in that of `CC(C)Oc1ccc2c(=O)c(-c3ccccc3)coc2c1` + Cc1sc2c(c1C)C(c1ccc(Cl)cc1)=N[C@@H](CC(=O)OC(C)(C)C)c1nnc(C)n1-2 [NCGC00250412-19], -14; in that of `CCCCOc1ccc(C(=O)Nc2ccc(F)cc2F)cc1` + Cc1sc2c(c1C)C(c1ccc(Cl)cc1)=N[C@@H](CC(=O)OC(C)(C)C)c1nnc(C)n1-2 [NCGC00250412-19], -60.1.
`Cc1cc2cc3c(C)cc(=O)oc3c(C)c2o1` + Cc1sc2c(c1C)C(c1ccc(Cl)cc1)=N[C@@H](CC(=O)OC(C)(C)C)c1nnc(C)n1-2 [NCGC00250412-19]: the “excess over highest single agent” value was -28.3.
With `Clc1ccc2nsnc2c1NC1=NCCN1` + Cc1sc2c(c1C)C(c1ccc(Cl)cc1)=N[C@@H](CC(=O)OC(C)(C)C)c1nnc(C)n1-2 [NCGC00250412-19], the “excess over highest single agent” value is -131.
As for `Cc1cc(Nc2cc(N3CCN(C)CC3)nc(Sc3ccc(NC(=O)C4CC4)cc3)n2)n[nH]1` + Cc1sc2c(c1C)C(c1ccc(Cl)cc1)=N[C@@H](CC(=O)OC(C)(C)C)c1nnc(C)n1-2 [NCGC00250412-19], the “excess over highest single agent” value was -312.
The value for `Cc1cc(C(C)Nc2ccccc2)c2nc(N3CCOCC3)cc(=O)n2c1` (configuration not stated) + Cc1sc2c(c1C)C(c1ccc(Cl)cc1)=N[C@@H](CC(=O)OC(C)(C)C)c1nnc(C)n1-2 [NCGC00250412-19] was -241.
In the case of `NC1(Cc2ccc(Cl)cc2)CCN(c2ncnc3[nH]ccc23)CC1` + Cc1sc2c(c1C)C(c1ccc(Cl)cc1)=N[C@@H](CC(=O)OC(C)(C)C)c1nnc(C)n1-2 [NCGC00250412-19] it was -66.
In the case of `COc1cc(CNC(=O)CCCC/C=C/C(C)C)ccc1O` + Cc1sc2c(c1C)C(c1ccc(Cl)cc1)=N[C@@H](CC(=O)OC(C)(C)C)c1nnc(C)n1-2 [NCGC00250412-19] it was -7.24; in that of `Clc1ccc(C2(c3ccc(-c4cn[nH]c4)cc3)CCNCC2)cc1` + Cc1sc2c(c1C)C(c1ccc(Cl)cc1)=N[C@@H](CC(=O)OC(C)(C)C)c1nnc(C)n1-2 [NCGC00250412-19], -22.4; in that of `O=C(O)CCCCCC(=O)NN=C1CCCC1` + Cc1sc2c(c1C)C(c1ccc(Cl)cc1)=N[C@@H](CC(=O)OC(C)(C)C)c1nnc(C)n1-2 [NCGC00250412-19], 16.4.
Take `C[C@]12CC[C@@H]3c4ccc(O)cc4C[C@@H](CCCCCCCCC[S+]([O-])CCCC(F)(F)C(F)(F)F)[C@H]3[C@@H]1CC[C@@H]2O` (some centres not stated) + Cc1sc2c(c1C)C(c1ccc(Cl)cc1)=N[C@@H](CC(=O)OC(C)(C)C)c1nnc(C)n1-2 [NCGC00250412-19]: the “excess over highest single agent” value is -75.5.

The values are drawn from the supplement of paper PMC10077471.
